The target in assay [1] is T1, C3G-mEGFP wild type (HEK293T, transient) (human) (UniProt Q13905).
T1 sequence: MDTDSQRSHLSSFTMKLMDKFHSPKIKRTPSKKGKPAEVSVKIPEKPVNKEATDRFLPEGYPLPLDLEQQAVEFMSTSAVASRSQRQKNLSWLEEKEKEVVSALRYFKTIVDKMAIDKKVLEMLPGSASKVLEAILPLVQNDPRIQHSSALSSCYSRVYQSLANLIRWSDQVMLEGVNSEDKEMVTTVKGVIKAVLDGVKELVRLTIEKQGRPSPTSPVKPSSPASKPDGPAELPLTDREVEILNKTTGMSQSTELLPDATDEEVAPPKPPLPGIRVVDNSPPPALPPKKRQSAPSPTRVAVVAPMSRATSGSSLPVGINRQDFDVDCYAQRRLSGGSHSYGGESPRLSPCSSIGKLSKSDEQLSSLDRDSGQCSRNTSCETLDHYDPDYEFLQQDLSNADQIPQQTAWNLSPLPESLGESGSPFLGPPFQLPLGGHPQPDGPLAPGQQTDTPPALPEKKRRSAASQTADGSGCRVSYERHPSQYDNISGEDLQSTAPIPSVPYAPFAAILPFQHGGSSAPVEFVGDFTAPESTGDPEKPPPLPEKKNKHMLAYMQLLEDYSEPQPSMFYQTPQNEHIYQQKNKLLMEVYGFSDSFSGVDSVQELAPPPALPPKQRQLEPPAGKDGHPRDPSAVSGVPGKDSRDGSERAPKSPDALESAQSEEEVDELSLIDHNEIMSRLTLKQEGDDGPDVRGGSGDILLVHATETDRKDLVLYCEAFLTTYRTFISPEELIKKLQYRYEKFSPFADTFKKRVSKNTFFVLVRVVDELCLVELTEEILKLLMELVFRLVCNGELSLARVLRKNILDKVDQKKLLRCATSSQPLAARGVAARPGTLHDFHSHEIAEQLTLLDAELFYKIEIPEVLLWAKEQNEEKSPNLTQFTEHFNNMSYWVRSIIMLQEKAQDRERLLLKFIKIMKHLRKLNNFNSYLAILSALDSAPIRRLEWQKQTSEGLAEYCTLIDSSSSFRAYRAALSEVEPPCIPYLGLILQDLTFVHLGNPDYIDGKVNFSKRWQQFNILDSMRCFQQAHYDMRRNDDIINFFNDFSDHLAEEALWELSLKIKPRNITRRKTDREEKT
In words: co-IP; HEK293T cells transiently expressing C3G-mEGFP, lysed 48 h after transfection; abGFP4 nanobody resin against GFP; endogenous CrkL by western blot.

By UniProt entry, the sequences of proteins in these tests, tags left out.
UniProt P46109: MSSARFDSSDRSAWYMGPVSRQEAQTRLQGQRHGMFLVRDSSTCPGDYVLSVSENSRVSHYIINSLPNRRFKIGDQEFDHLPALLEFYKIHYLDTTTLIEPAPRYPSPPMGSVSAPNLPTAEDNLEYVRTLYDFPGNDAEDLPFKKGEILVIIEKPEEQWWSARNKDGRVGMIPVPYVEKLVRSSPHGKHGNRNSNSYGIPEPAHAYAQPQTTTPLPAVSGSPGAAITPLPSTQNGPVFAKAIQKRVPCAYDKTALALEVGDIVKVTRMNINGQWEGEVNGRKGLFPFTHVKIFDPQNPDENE

The target of assay [2] is T2, C3G-mEGFP wild type (Jurkat, stable) (human) (UniProt Q13905).
T2 sequence: T1 sequence
Briefly: co-IP; Jurkat cells stably expressing C3G-mEGFP; lysate (0.5% Triton X-100, 150 mM NaCl) on abGFP4 nanobody resin against GFP overnight at 4 °C; endogenous CrkL by western blot.

These are yes or no findings as the source states them, for the method shown. In cells and extracts the contact can be indirect. Some binding calls cover weakened binding; strength is not graded here. Tags and fused reporters may be left off the sequences shown.

For the substance “endogenous CrkL (HEK293T cells) (from UniProt P46109 1-303)”, the binding result in assay [1] is recorded as “binds”.

Regarding “endogenous CrkL (Jurkat cells) (from UniProt P46109 1-303)”, in assay [2], the binding entry was “binds”.

Values taken from PMC9896810.
